{"sequences": {"note": "Protein sequences, listed by entry. Tags and fused reporters are not part of them. Lines headed by an entry give the natural chain unless they say otherwise; changes in a name come on top.", "UniProt Q9UNA4": "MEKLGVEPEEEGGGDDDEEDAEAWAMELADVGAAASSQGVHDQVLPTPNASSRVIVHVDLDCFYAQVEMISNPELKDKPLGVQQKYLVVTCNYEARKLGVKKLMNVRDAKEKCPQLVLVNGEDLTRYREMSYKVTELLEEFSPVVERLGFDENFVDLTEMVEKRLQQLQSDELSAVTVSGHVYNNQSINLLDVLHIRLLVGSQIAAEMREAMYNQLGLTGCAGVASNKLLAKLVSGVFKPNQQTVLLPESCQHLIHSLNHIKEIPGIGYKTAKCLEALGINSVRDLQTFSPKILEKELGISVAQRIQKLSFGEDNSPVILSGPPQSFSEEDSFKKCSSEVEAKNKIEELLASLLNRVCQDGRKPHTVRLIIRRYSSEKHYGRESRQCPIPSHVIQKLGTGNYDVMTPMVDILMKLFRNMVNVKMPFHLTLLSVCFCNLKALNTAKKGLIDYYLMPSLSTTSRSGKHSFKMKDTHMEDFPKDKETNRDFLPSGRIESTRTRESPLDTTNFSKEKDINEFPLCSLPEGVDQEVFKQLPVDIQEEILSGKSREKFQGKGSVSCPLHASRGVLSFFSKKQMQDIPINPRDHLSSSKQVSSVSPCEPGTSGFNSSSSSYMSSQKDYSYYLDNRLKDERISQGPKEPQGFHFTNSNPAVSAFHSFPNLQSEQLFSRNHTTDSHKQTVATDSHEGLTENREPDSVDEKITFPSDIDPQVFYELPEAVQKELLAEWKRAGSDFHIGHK"}, "source": "PubChem BioAssay AID588590", "about": "(National Center for Advancing Translational Sciences (NCATS), 2011)", "note": "The campaign covered roughly 390,000 compounds. About 4,000 (1%) were called active. This list was built around the results that the source calls inconclusive (neither active nor inactive); the mix of calls is not that of the screen. The call rests on the fitted dose curve; in most records, active means well fitted inhibition curve with a large enough effect; inconclusive means small, poorly fitted or top-dose-only effect, or another doubt; inactive means no such curve, though single readings can be large or run the other way. Potencies of inconclusive entries are doubtful fits and often do not repeat. Potency means the concentration at half of the fitted maximal effect.", "data": [{"biological_target": "DNA polymerase iota (Homo sapiens) (UniProt Q9UNA4)", "test": "qHTS for Inhibitors of Polymerase Iota", "settings": "Pol iota fluorescent replication assay, 10 min; series mostly up to 115 µM", "how_it_was_run": "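Fluorescent replication assay read twice, at 0 min and 10 min after adding 50 nM (final) substrate. Enzyme (10 nM) and compounds were first incubated 15 min at room temperature; enzyme-free buffer wells were negative controls.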", "values": [{"smiles": "COc1ccc(NS(=O)(=O)c2ccc(C(=O)Nc3c(C)n(C)n(-c4ccccc4)c3=O)cc2)cc1", "Potency": "inconclusive: 89.1 µM [inhibitor, single point]"}, {"smiles": "CC(C)C[C@@H](CNCC(=O)[C@H](Cc1c[nH]c2ccccc12)NC(=O)c1[nH]cnc1C(=O)N[C@@H](C)CN)NC(=O)c1nc[nH]c1C(=O)N[C@@H](Cc1ccccc1)C(=O)O", "Potency": "inconclusive: 10 µM [inhibitor, partial curve, poor fit]"}, {"smiles": "Cc1cccc2c(=O)c(C(=O)NCc3cccs3)c[nH]c12", "Potency": "inconclusive: 100 µM [inhibitor, single point]"}, {"smiles": "Cc1ccc(-c2nc3cc(Cl)ccc3o2)cc1NC(=O)COc1ccccc1C", "Potency": "inconclusive: 89.1 µM [inhibitor, partial curve, poor fit]"}, {"smiles": "COc1ccc(NC(=O)c2c(-c3ccccc3)c(-c3ccccc3)nn(C)c2=O)c(OC)c1", "Potency": "inactive"}, {"smiles": "Clc1ccc2c(N/N=C/c3cccnc3)ccnc2c1", "Potency": "inconclusive: 7.94 µM [inhibitor, partial curve, poor fit]"}, {"smiles": "Cc1ccc(OCC(=O)NCCN2CCCC2)cc1", "Potency": "inconclusive: 12.6 µM [inhibitor, partial curve]"}, {"smiles": "COCCCNC(=O)c1sc2nc(C)c(C(=O)Nc3ccc(C)cc3C)c(-c3ccc(Cl)cc3)c2c1N", "Potency": "inactive"}, {"smiles": "O=[N+]([O-])c1ccc2nc(SCc3cn4cccnc4n3)[nH]c2c1", "Potency": "inconclusive: 11.2 µM [inhibitor, full curve, poor fit]"}, {"smiles": "CCOC(=O)C(=Cc1ccc(-n2cncn2)cc1)C(=O)OCC", "Potency": "inconclusive: 14.1 µM [inhibitor, full curve, poor fit]"}, {"smiles": "Cc1ccc(S(=O)(=O)c2nc(-c3cccs3)oc2SCC(N)=O)cc1", "Potency": "inconclusive: 14.1 µM [inhibitor, partial curve]"}, {"smiles": "O=C(CC(NS(=O)(=O)c1ccc(Cl)cc1)c1ccco1)N1CCc2ccccc21", "note": "(centres undefined)", "Potency": "inconclusive: 39.8 µM [inhibitor, single point]"}, {"smiles": "COc1cc(/C=N/NC(=O)c2ccncc2)ccc1OCC(=O)Nc1cccc([N+](=O)[O-])c1", "Potency": "inconclusive: 3.55 µM [inhibitor, full curve, poor fit]"}, {"smiles": "Cc1c(-c2cc(Br)ccc2O)nc2cc3c(cc2c1C)OCO3", "Potency": "inconclusive: 28.2 µM [inhibitor, partial curve, poor fit]"}, {"smiles": "CCOc1ccc(/C=N/NC(=O)c2cc3c(OC)cccc3[nH]2)cc1", "Potency": "active: 25.1 µM"}, {"smiles": "O=C(CSc1nnc(-c2ccc(OC(F)F)cc2)o1)NC(=O)NCc1ccco1", "Potency": "active: 79.4 µM"}, {"smiles": "COc1ccccc1NS(=O)(=O)c1ccc(O)c(C(=O)OCC(=O)N2CCc3ccccc32)c1", "Potency": "inconclusive: 25.1 µM [inhibitor, partial curve]"}, {"smiles": "O=C(O)c1cc(-c2ccc(N3CCOCC3)cc2)nn1-c1ccc(F)cc1", "Potency": "inactive"}, {"smiles": "O=C(O)CCC(=O)N1CCc2cc(S(=O)(=O)N3CC=C(c4ccccc4)CC3)ccc21", "Potency": "inconclusive: 25.1 µM [inhibitor, single point]"}, {"smiles": "O=C1C(Cl)=C(NCCCN2CCOCC2)C(=O)c2ccccc21", "Potency": "inconclusive: 25.1 µM [inhibitor, single point]"}, {"smiles": "COc1ccccc1/C=C/C(=O)c1ccccc1", "Potency": "inconclusive: 11.2 µM [inhibitor, partial curve]"}, {"smiles": "CC(NC(=O)c1cccs1)c1ccc2c(c1)OCO2", "note": "(centres undefined)", "Potency": "inconclusive: 100 µM [inhibitor, partial curve, poor fit]"}, {"smiles": "CC(C)Cc1ccc(C(C)/C=C2/CCC(CN3CCCCC3)C2=O)cc1", "note": "(centres undefined)", "Potency": "inconclusive: 22.4 µM [inhibitor, partial curve]"}, {"smiles": "Cc1ccc(-c2cc(C(=O)NCCc3ccccc3)c3c(-c4ccc(C)cc4)[nH]nc3n2)cc1", "Potency": "inactive"}, {"smiles": "Cc1ccc(/C(O)=C2/C(=O)C(=O)N(c3ccccn3)C2c2ccc(F)cc2)cc1", "note": "(centres undefined)", "Potency": "inconclusive: 31.6 µM [inhibitor, single point]"}, {"smiles": "COc1cccc(N/C(SCc2ccccc2C)=C(/C#N)C(=O)NCc2cccs2)c1", "Potency": "inconclusive: 20 µM [inhibitor, partial curve, poor fit]"}, {"smiles": "c1ccc(-c2ccc(-c3nc(-c4cccnc4)no3)cc2)cc1", "Potency": "inconclusive: 112 µM [inhibitor, single point]"}, {"smiles": "CCOc1ccc(/C=C/c2ccnc3ccccc23)cc1OCC", "Potency": "inconclusive: 79.4 µM [inhibitor, single point]"}, {"smiles": "Cc1cc(C(=O)COc2cccnc2[N+](=O)[O-])c(C)n1Cc1ccco1", "Potency": "inconclusive: 20 µM [inhibitor, full curve, poor fit]"}, {"smiles": "Nc1[nH]c(=O)[nH]c(=O)c1N=Nc1ccccc1Cl", "Potency": "inconclusive: 2.82 µM [inhibitor, full curve, poor fit]"}, {"smiles": "O=C(Nc1ccc2c(c1)OCO2)C1CCN(C(=O)CSc2ncnc3ccccc23)CC1", "Potency": "inconclusive: 14.1 µM [inhibitor, partial curve, poor fit]"}, {"smiles": "O=C1CCC(C(=O)Nc2cccc(S(=O)(=O)Nc3ccccc3F)c2)=NN1", "Potency": "inactive"}, {"smiles": "COc1ccc(C(=O)N2CCc3cc(OC)c(OC)cc3C2COc2ccc3c(C)cc(=O)oc3c2)c(OC)c1", "note": "(centres undefined)", "Potency": "inactive"}, {"smiles": "CC(/C=N/NC(=O)c1ccccn1)=C\\c1ccco1", "Potency": "inconclusive: 11.2 µM [inhibitor, full curve]"}, {"smiles": "O=C(Cn1c2ccccc2c(=O)c2ccccc21)Nc1cccc(F)c1", "Potency": "inconclusive: 2.82 µM [inhibitor, partial curve, poor fit]"}, {"smiles": "COc1ccc(NC(=O)c2sc3nc(C)c(C(=O)Nc4ccc(Cl)cc4)c(-c4ccc(Br)cc4)c3c2N)cc1", "Potency": "inconclusive: 79.4 µM [inhibitor, single point]"}, {"smiles": "COc1ccc(S(=O)(=O)N(CC(=O)NCc2ccc(C)cc2)c2ccc(Cl)cc2)cc1", "Potency": "inactive"}, {"smiles": "Cc1cccc(C)c1-n1cccc1/C=C1\\SC(=S)N(c2cccc(C(=O)O)c2)C1=O", "Potency": "inconclusive: 10 µM [inhibitor, partial curve]"}, {"smiles": "COc1ccc(C(=O)/C(=C/O)N=Nc2ccc(F)cc2)cc1", "Potency": "inactive"}]}]}
